Patent publication US9783578B2 (AURIGENE DISCOVERY TECHNOLOGIES LIMITED, priority 2010, dated 2017)
Strings that start with PEPTIDE1 are HELM notation: dots part the residues, brackets hold end groups and non-standard residues.

Test: general procedure: Fmoc solid-phase peptide synthesis; CLEAR-Amide resin (100-200 mesh, 0.4-0.49 mmol/g); Rink-Amide MBHA resin (100-200 mesh, 0.66 mmol/g); HBTU/NMM (automated); DIC/HOBT (manual)
Details: whole synthesis

Substance	crude yield	final HPLC purity (HPLC method 1)	other results
Ac-SNTSESF-NH2	70%	96%	–
CGAISLAPKAQIKE-NH2	–	–	final HPLC purity (HPLC method 1, hydrocarbon staple, sequence written open): 95.4%; crude yield (hydrocarbon staple, sequence written open): 63%
EDRSQPGQDCR-NH2	74%	94.4%	–
EKIQAKPAYWNLVK(KDTQNS)DTQNS (EKIQAKPAYWNLVKDTQNS; branched lysine side chain peptide; Branched peptide Sequence with NH2 modified C terminal and branch amino acid sequence attached to the Lys14 residue; branch amino acid sequence KDTQNS attached to the Lys14 residue; C terminal modified with NH2)	70%	–	–
FRVTQK(SNTSESF)FRVTQAhxLAPKAQIKE-NH2	70%	95.2%	–
FRVTQK(SNTSESF)FRVTQLAPKAQIKE-NH2 (FRVTQKFRVTQLAPKAQIKE; branched lysine; C-terminal amide; Branched at LYS6 with Seq ID 4 and C terminal modified with NH2; branched amino acid sequence, Seq ID 4 attached to the Lys6 residue; C terminal modified with NH2)	74%	97.6%	–
PEPTIDE1{S.N.T.S.E.S.F.[Lys-open].F.R.V.T.Q.L.A.P.K.A.Q.I.K.E.[am]}|PEPTIDE2{S.N.T.S.E.S.F}$PEPTIDE1,PEPTIDE2,8:R3-7:R2$$$V2.0	89%	96.6%	–
SNQTDK (SNQTDK) FRVTQ LAPKAQIKE-NH2 (SNQTDKFRVTQLAPKAQIKE; branched lysine; C-terminal amide; Branched at LYS6 with a peptide of sequence SNQTDK and C terminal modified with NH2; Branched amino acid sequence SNQTDK attached to the Lys6 residue)	70%	95%	–
SNQTDK (SNQTDK) VLNWYRM LAPKAQIKE-NH2 (SNQTDKVLNWYRMLAPKAQIKE; branched lysine side chain peptide; C-terminal amide; Branched peptide Sequence with NH2 modified C terminal and branch amino acid sequence at Lys6 residue; branched amino acid sequence SNQTDK attached to the Lys6 residue)	50%	94%	–
SNQTDKLAAFPEDSQPGQD-NH2 (C-terminal amide; C terminal modified with NH2)	65%	96%	–
SNTSESF-NH2	69%	–	final HPLC purity (HPLC method 2): 94.4%
SNTSESFK(SNQTDK)FRVTQK(LAP)AQIKE-NH2	65%	–	final HPLC purity (HPLC method 3): 95.4%
SNTSESFK(SNQTDK)FRVTQLAPKAQIKE-NH2	70%	93%	–
